# Results reported in PubChem BioAssay (NCATS).
# Chains of the proteins cited; added tags and fusions are not shown. Lines headed by an entry give the natural chain unless they say otherwise; changes in a name come on top. Residues count along the entry.
# UniProt Q8JUX6, 220-798 limits assumed: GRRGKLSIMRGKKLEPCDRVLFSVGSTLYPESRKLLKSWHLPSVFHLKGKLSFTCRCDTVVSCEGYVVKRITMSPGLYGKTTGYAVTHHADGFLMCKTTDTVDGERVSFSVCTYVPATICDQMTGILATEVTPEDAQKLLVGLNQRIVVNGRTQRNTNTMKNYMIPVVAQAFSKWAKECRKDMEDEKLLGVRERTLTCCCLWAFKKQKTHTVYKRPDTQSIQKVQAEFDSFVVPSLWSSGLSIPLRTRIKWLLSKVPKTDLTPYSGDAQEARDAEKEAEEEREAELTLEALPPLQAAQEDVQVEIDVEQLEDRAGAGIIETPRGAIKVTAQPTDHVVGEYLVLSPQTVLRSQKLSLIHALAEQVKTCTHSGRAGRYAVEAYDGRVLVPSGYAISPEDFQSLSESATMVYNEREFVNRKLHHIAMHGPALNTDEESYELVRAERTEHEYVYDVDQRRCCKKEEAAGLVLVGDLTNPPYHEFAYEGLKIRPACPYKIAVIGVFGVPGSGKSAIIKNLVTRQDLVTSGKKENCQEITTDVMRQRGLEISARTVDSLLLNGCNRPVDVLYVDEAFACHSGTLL
# UniProt P00784: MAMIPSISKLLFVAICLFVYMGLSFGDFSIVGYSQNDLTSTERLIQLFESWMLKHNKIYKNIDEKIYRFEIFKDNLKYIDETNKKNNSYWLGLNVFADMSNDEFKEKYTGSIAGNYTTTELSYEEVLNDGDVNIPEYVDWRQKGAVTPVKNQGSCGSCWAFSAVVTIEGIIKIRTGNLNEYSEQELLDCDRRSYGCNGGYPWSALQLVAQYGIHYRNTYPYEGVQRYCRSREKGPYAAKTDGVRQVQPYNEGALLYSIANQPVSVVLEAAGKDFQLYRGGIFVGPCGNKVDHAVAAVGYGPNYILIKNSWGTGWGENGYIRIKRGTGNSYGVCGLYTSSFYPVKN
# “And” between values parts separate entries of the source, which are not always exact repeats. Equal values may be shown once. This list was built around the results that the source calls inconclusive (neither active nor inactive); the mix of calls is not that of the screen. Potencies of inconclusive entries are doubtful fits and often do not repeat. The source made the active and inactive calls. Calls come from the whole dose curve.
# Columns and labels:
# [1] = target: Polyprotein P1234 (Chikungunya virus (strain S27-African prototype)) (UniProt Q8JUX6); test: Secondary cell base assay for inhibitors of NSP2Pro Chikungunya virus (CHIKV) (AID 1964100); note: nearly all actives have a fitted effect of over 70% in size
# [2] = target: Polyprotein P1234 (Chikungunya virus (strain S27-African prototype)) (UniProt Q8JUX6); test: Selectivity profile for inhibitors of NSP2Pro chikungunya virus (CHIKV): Endogenous NS2/3 peptide Counterscreen (AID 1964103); note: nearly all actives have a fitted effect of over 55% in size
# [3] = tested on: Chikungunya virus nsP2 protease; test: Confirmatory qHTS for inhibitors of NSP2Pro chikungunya virus (CHIKV) (AID 1964105); note: nearly all actives have a fitted effect of over 75% in size
# [4] = tested on: Hepatitis C virus NS3/4A protease; test: Selectivity profile for inhibitors of NSP2Pro chikungunya virus (CHIKV): NS34A-HCV Counterscreen (AID 1964106); settings: activity change, negative = inhibition: at 50.9 µM (top of the series) unless noted; note: nearly all actives have a fitted effect of over 55% in size
# Papain (Carica papaya) = Papain (Carica papaya) (UniProt P00784); test: Selectivity profile for inhibitors of NSP2Pro chikungunya virus (CHIKV): Papain Counterscreen (AID 1964104)
# [5] = target: Polyprotein P1234 (Chikungunya virus (strain S27-African prototype)) (UniProt Q8JUX6); test: Selectivity profile for inhibitors of NSP2Pro chikungunya virus (CHIKV): Full length NSP2 enzyme counterscreen (CHIKV-NSP2) (AID 1964101); settings: Full-length CHIKV NSP2 protease enzymatic counterscreen; activity change, negative = inhibition: at 50.7 µM (top of the series); note: nearly all actives have a fitted effect of over 65% in size
# Potency is the fitted concentration of half-maximal effect.
compound,measurement,setting,value
CC(C)N(CCC(=O)c1ccc2ccccc2c1)Cc1ccccc1,Potency,[1],"inconclusive: 11.6 µM [inhibitor, partial curve]"
same,Potency,[2],active: 5.8 µM
CC/C(C)=C/C(=O)OC1C(OC2(C)CCC3C(C4C(C)CCC42)C3(C)C)OC(C)C(O)C1O (stereo not given),Potency,[1],"inconclusive: 20 µM [inhibitor, partial curve, poor fit]"
same,Potency,[3],inactive
same,Potency,[4],inactive
O=C1Nc2ccccc2/C1=C/c1cc(O)ccc1O,Potency,[1],"inconclusive: 7.3 µM [inhibitor, partial curve]"
same,Potency,[2],active: 23.1 µM
C[C@@H]1CC[C@]2(C)C3(C)CC[C@@]2(OC3=O)[C@@]12C[C@H](c1ccoc1)OC2=O,Potency,[1],inactive
same,Potency,[2],"inconclusive: 11.3 µM [inhibitor, partial curve]"
O=C1C2CC=CCC2C(=O)N1SC(Cl)(Cl)Cl (stereo not given),Potency,[1],"inconclusive: 5.17 µM [inhibitor, partial curve, poor fit]"
same,Potency,[3],active: 0.896 µM
COc1ccc([N+](=O)[O-])c(S(=O)(=O)c2ccc(Cl)cc2)n1,Potency,[1],active: 2.06 µM
same,Potency,[2],active: 5.8 µM
same,Potency,[4],inactive
O=C(O)CSc1cc(NS(=O)(=O)c2ccc(Br)cc2)c2ccccc2c1O,Potency,[1],"inconclusive: 18.3 µM [inhibitor, partial curve, poor fit]"
same,Potency,[2],active: 1.83 µM
same,Potency,Papain (Carica papaya),active: 18.3 µM
same,Potency,[3],active: 0.798 µM
same,Potency,[4],"inconclusive: 0.146 µM [inhibitor, full curve]"
Oc1ccc(NCc2ccccc2OCc2ccc(Cl)cc2)cc1,Potency,[1],active: 11.6 µM
same,Potency,[2],"inconclusive: 16.3 µM [inhibitor, partial curve]"
CO/N=C(/C(=O)N[C@@H]1C(=O)N2C(C(=O)O)=C(CSC(=O)c3ccco3)CS[C@H]12)c1csc(N)n1,Potency,[1],inactive
same,Potency,[2],inactive
same,Potency,[3],inactive
OCc1ccc(-c2ccc3ncnc(NCCc4cnc[nH]4)c3c2)o1,Potency,[1],active: 20.6 µM
same,Potency,[5],inactive
same,Potency,[3],inactive
same,Potency,[4],active: 10.3 µM
C1Cc2[nH]nc(-c3nn[nH]n3)c2C1,Potency,[2],"inconclusive: 18.3 µM [inhibitor, partial curve]"
COc1ccc(CNC(=O)c2nc(S(=O)(=O)Cc3ccccc3)ncc2Cl)cc1,Potency,[3],active: 5.65 µM
c1c2c(cc3c1OCO3)-c1cc3ccc4c(c3c[n+]1CC2)OCO4,Potency,[3],"inconclusive: 1.13 µM [inhibitor, partial curve]"
O=C(Nc1ccc(N2CCC(N3CCCCC3)CC2)c(C(=O)O)c1)c1ccccc1,Potency,[5],active: 2.91 µM
same,Potency,[2],active: 9.19 µM
O=C(Nc1cccs1)NC1CCN(c2ccc(C(F)(F)F)cn2)C1 (stereo not given),Potency,[5],"inconclusive: 18.3 µM [inhibitor, partial curve]"
same,Potency,[2],"inconclusive: 14.6 µM [inhibitor, partial curve]"
same,Potency,[3],"inconclusive: 7.98 µM [inhibitor, partial curve]"
CC1=CC(=O)C[C@H]2[C@@H]1CC[C@@H](C)[C@]21CO[C@H](c2ccoc2)C1=O,Potency,[5],inactive
same,Potency,[2],inactive
same,Potency,[3],inactive
CC(C)Nc1cccnc1N1CCN(C(=O)c2cc3cc(NS(C)(=O)=O)ccc3[nH]2)CC1,Potency,[5],"inconclusive: 4.61 µM [inhibitor, full curve]"
same,Potency,[2],"inconclusive: 6.51 µM [inhibitor, partial curve]"
CCC(C)/C=C(C)/C=C/C1=CC2=CC(=O)C3(C)OC(C)(O)C(C(=O)OC)C3C2=CO1 (stereo not given),Potency,[5],inactive
same,Potency,[2],inactive
Nc1nc2c(s1)CCN(Cc1ccc(Cl)cc1)CC2,Potency,[5],inactive
same,Potency,[2],inactive
same,Potency,Papain (Carica papaya),inactive
same,Potency,[3],"inconclusive: 7.98 µM [inhibitor, partial curve]"
Cc1nc(C2CCCN2Cc2ccc(-c3ccn[nH]3)o2)cs1 (stereo not given),Potency,[5],"inconclusive: 20.6 µM [inhibitor, partial curve]"
same,Potency,[2],"inconclusive: 20.6 µM [inhibitor, partial curve]"
same,Potency,[3],"inconclusive: 7.98 µM [inhibitor, partial curve]"
O=C(C(NS(=O)(=O)c1ccc2[nH]c(=O)ccc2c1)c1cccc(C(F)(F)F)c1)N(Cc1ccco1)Cc1cccs1 (stereo not given),Potency,[5],"inconclusive: 20.6 µM [inhibitor, partial curve, poor fit]"
same,Potency,[2],inactive
O=c1c(NS(=O)(=O)Cc2ccccc2)ccc2n1C[C@H]1C[C@@H]2CN(S(=O)(=O)c2ccccc2)C1,Potency,[5],"inconclusive: 18.3 µM [inhibitor, partial curve]"
same,Potency,[2],"inconclusive: 18.3 µM [inhibitor, partial curve]"
same,Potency,[3],"inconclusive: 11.3 µM [inhibitor, partial curve, poor fit]"
same,Potency,[4],"inconclusive: 1.46 µM [inhibitor, single point]"
CC(=O)N[C@@H](C(=O)O[C@H]1CCC(C)(C)[C@@H]2CCC3=C(COC3=O)[C@@]12C)C(C)C,Potency,[5],"inconclusive: 10.1 µM [inhibitor, partial curve]"
same,Potency,[2],inactive
CN(C)C1(CNC(=O)c2ccc(OC3CCN(C(=O)C4CC4)CC3)cc2)CCCCC1,Potency,[5],inactive
same,Potency,[2],"inconclusive: 0.461 µM [inhibitor, single point]"
Cc1cc(CCCOc2c(C)cc(-c3noc(C(F)(F)F)n3)cc2C)on1,Potency,[5],inactive
same,Potency,[2],inactive
same,Potency,Papain (Carica papaya),inactive
O=C(O/N=C1\c2ccccc2-c2nc3ccccc3nc21)c1ccco1,Potency,[5],active: 3.66 µM
same,Potency,[2],"inconclusive: 10.3 µM [inhibitor, partial curve]"
COc1ncc(Nc2ncc([C@@H](C)N3CCN(S(C)(=O)=O)CC3)cc2-c2nc(C)nc(N)n2)cc1F,Potency,[5],inactive
same,Potency,[2],inactive
same,Potency,Papain (Carica papaya),"inconclusive: 25.9 µM [inhibitor, partial curve, poor fit] and inconclusive: 6.51 µM [inhibitor, partial curve, poor fit]"
same,Potency,[3],inactive
O=C(O)C(S)C(S)C(=O)O (stereo not given),Potency,[5],"inconclusive: 41 µM [inhibitor, single point]"
same,Potency,[2],"inconclusive: 36.6 µM [inhibitor, single point]"
same,Potency,Papain (Carica papaya),"inconclusive: 16.3 µM [inhibitor, partial curve]"
CC1CCc2c(cc(Br)c(F)c2Br)N1C=O (stereo not given),Potency,[5],"inconclusive: 23.1 µM [inhibitor, single point]"
same,Potency,[2],"inconclusive: 18.3 µM [inhibitor, partial curve]"
same,Potency,[3],"inconclusive: 7.98 µM [inhibitor, partial curve]"
same,Potency,[4],"inconclusive: 7.3 µM [inhibitor, full curve]"
COc1cc2c(cc1OC)-c1cc3ccc(OC)c(OC)c3c[n+]1CC2,Potency,[5],"inconclusive: 20.6 µM [inhibitor, partial curve]"
same,Potency,[2],"inconclusive: 18.3 µM [inhibitor, partial curve]"
same,Potency,Papain (Carica papaya),"inconclusive: 23.1 µM [inhibitor, partial curve]"
CC1(C)OC(=O)C=C[C@@]2(C)C1CC(=O)[C@]1(C)C2CC[C@@]2(C)[C@H](c3ccoc3)OC(=O)[C@H]3O[C@]321 (stereo not given in full),Potency,[5],"inconclusive: 7.98 µM [inhibitor, partial curve, poor fit]"
same,Potency,[2],inactive
Cc1ccsc1[C@@H]1CCN(Cc2ccc(-c3ccn[nH]3)o2)C[C@H]1O,Potency,[5],"inconclusive: 11.6 µM [inhibitor, partial curve, poor fit]"
same,Potency,[2],"inconclusive: 18.3 µM [inhibitor, partial curve]"
same,Potency,[3],active: 7.98 µM
same,Potency,[4],"inconclusive: 14.6 µM [inhibitor, partial curve, poor fit]"
CC[C@@]1(O)C[C@H](O[C@H]2C[C@H](N(C)C)[C@H](O[C@H]3C[C@H](O)[C@H](O[C@H]4CCC(=O)[C@H](C)O4)[C@H](C)O3)[C@H](C)O2)c2c(cc3c(c2O)C(=O)c2c(O)cccc2C3=O)[C@@H]1C(=O)OC,Potency,[5],"inconclusive: 20.6 µM [inhibitor, partial curve, poor fit]"
same,Potency,[2],"inconclusive: 14.6 µM [inhibitor, partial curve, poor fit]"
same,Potency,[3],"inconclusive: 11.3 µM [inhibitor, partial curve]"
Cn1ccc(C(=O)NCc2nnc3n2C(C(=O)NCC2CC2)CC3)n1 (stereo not given),Potency,[5],"inconclusive: 16.2 µM [inhibitor, partial curve, poor fit]"
same,Potency,[2],"inconclusive: 22.8 µM [inhibitor, partial curve]"
Cc1ccc(N[S+](=O)([O-])c2cc3c(cc2N[C@@H](C)CO)NC(=O)CC3)cc1N[C@@H](C)CO,Potency,[5],"inconclusive: 16.3 µM [inhibitor, partial curve]"
same,Potency,[2],"inconclusive: 18.3 µM [inhibitor, partial curve]"
same,Potency,[3],"inconclusive: 2.52 µM [inhibitor, partial curve, poor fit]"
CC(=O)Oc1cc2c(s1)CCN(C(C(=O)C1CC1)c1ccccc1F)C2 (stereo not given),Potency,[5],"inconclusive: 20.6 µM [inhibitor, partial curve]"
same,Potency,[2],"inconclusive: 18.3 µM [inhibitor, partial curve]"
same,Potency,Papain (Carica papaya),"inconclusive: 18.3 µM [inhibitor, partial curve]"
same,Potency,[3],"inconclusive: 11.3 µM [inhibitor, partial curve]"
same,Potency,[4],inactive
c1c(C2CC2)nnn1C1CNC1,Potency,[5],inactive
same,Potency,[2],"inconclusive: 29.1 µM [inhibitor, single point]"
same,Potency,[4],"inconclusive: 25.9 µM [inhibitor, single point]"
Cc1nc(C2CCN(C(=O)Cc3ccccc3)CCN2C(=O)Cc2ccccc2)n[nH]1 (stereo not given),Potency,[5],"inconclusive: 16.3 µM [inhibitor, partial curve]"
same,Potency,[2],"inconclusive: 20.6 µM [inhibitor, partial curve]"
same,Potency,[3],"inconclusive: 15.9 µM [inhibitor, partial curve, poor fit]"
same,Potency,[4],"inconclusive: 18.3 µM [inhibitor, partial curve]"

# Some of the entries above in a different format.
compound | measurement | setting | value
C1Cc2[nH]nc(-c3nn[nH]n3)c2C1 | Potency | [2] | inconclusive: 18.3 µM [inhibitor, partial curve]
CC1=CC(=O)C[C@H]2[C@@H]1CC[C@@H](C)[C@]21CO[C@H](c2ccoc2)C1=O | Potency | [2] | inactive
COc1cc2c(cc1OC)-c1cc3ccc(OC)c(OC)c3c[n+]1CC2 | Potency | [5] | inconclusive: 20.6 µM [inhibitor, partial curve]
Cc1ccsc1[C@@H]1CCN(Cc2ccc(-c3ccn[nH]3)o2)C[C@H]1O | Potency | [3] | active: 7.98 µM
Cc1nc(C2CCN(C(=O)Cc3ccccc3)CCN2C(=O)Cc2ccccc2)n[nH]1 (stereo not given) | Potency | [2] | inconclusive: 20.6 µM [inhibitor, partial curve]
